{
  "sequences": {"note": "Sequences of proteins named here, by UniProt entry; tags and fusion partners are left off. A change or cut given only in a name is not applied to a line headed by its entry.", "UniProt O95684": "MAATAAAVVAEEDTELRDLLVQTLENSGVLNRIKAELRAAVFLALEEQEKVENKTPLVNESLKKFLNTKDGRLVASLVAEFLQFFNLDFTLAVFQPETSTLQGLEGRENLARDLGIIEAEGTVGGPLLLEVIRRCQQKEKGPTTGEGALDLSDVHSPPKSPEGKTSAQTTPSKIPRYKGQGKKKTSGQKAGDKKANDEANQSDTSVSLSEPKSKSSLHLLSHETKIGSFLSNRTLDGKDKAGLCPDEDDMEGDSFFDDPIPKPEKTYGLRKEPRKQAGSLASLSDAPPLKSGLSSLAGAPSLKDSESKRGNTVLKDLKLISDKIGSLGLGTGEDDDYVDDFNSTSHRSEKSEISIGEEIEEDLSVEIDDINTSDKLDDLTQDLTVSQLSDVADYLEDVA", "UniProt Q5HYJ3": "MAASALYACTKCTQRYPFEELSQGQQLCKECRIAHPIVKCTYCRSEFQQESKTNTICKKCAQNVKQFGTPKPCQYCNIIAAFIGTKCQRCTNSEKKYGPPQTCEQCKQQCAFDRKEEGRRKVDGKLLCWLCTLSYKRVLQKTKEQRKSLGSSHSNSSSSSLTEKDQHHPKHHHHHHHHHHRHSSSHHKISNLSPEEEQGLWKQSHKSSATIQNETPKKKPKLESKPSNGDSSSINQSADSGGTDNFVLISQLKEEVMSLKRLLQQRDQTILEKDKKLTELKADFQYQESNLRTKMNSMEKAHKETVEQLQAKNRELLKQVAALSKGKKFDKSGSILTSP", "UniProt Q9Y5Y0": "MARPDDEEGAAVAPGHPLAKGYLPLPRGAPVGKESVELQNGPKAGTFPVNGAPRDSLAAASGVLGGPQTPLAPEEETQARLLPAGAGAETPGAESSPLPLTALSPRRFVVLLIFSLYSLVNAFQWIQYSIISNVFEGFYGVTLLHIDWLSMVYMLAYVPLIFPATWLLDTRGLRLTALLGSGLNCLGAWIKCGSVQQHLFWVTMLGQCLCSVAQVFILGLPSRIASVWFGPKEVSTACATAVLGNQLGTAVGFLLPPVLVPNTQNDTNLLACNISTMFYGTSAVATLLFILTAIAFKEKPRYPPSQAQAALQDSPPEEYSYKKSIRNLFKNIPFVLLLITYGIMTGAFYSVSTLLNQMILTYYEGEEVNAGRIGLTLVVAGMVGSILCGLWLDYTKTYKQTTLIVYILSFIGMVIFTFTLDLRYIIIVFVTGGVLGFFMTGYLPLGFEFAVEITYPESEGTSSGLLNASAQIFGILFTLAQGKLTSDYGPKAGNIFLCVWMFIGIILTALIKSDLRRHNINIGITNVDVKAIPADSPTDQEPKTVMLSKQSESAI", "UniProt Q9H479": "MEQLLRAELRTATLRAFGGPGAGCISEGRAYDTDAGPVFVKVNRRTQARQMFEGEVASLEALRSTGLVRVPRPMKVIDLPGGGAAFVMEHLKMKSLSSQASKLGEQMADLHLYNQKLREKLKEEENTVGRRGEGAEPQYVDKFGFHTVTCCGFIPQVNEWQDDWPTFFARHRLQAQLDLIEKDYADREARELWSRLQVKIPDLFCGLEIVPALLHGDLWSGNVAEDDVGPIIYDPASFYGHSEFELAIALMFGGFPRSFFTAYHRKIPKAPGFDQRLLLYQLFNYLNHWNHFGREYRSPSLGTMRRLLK", "UniProt Q9UK73, whole entry, looked up": "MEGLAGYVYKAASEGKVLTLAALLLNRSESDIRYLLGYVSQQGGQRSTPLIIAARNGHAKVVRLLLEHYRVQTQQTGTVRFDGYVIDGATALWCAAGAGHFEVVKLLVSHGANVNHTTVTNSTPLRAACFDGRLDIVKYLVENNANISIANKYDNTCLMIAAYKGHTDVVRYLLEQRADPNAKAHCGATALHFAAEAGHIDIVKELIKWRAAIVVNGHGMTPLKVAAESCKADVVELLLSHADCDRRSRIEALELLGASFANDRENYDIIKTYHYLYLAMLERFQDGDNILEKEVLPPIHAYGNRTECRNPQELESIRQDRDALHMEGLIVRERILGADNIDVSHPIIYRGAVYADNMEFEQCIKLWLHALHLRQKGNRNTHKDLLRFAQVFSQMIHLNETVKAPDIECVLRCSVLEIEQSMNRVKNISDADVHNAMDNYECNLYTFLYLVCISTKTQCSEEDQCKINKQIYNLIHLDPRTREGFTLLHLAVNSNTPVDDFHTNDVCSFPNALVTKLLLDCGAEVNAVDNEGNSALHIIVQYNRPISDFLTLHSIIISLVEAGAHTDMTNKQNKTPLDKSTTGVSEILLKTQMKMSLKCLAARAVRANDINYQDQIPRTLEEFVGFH", "UniProt P02751, whole entry, looked up": "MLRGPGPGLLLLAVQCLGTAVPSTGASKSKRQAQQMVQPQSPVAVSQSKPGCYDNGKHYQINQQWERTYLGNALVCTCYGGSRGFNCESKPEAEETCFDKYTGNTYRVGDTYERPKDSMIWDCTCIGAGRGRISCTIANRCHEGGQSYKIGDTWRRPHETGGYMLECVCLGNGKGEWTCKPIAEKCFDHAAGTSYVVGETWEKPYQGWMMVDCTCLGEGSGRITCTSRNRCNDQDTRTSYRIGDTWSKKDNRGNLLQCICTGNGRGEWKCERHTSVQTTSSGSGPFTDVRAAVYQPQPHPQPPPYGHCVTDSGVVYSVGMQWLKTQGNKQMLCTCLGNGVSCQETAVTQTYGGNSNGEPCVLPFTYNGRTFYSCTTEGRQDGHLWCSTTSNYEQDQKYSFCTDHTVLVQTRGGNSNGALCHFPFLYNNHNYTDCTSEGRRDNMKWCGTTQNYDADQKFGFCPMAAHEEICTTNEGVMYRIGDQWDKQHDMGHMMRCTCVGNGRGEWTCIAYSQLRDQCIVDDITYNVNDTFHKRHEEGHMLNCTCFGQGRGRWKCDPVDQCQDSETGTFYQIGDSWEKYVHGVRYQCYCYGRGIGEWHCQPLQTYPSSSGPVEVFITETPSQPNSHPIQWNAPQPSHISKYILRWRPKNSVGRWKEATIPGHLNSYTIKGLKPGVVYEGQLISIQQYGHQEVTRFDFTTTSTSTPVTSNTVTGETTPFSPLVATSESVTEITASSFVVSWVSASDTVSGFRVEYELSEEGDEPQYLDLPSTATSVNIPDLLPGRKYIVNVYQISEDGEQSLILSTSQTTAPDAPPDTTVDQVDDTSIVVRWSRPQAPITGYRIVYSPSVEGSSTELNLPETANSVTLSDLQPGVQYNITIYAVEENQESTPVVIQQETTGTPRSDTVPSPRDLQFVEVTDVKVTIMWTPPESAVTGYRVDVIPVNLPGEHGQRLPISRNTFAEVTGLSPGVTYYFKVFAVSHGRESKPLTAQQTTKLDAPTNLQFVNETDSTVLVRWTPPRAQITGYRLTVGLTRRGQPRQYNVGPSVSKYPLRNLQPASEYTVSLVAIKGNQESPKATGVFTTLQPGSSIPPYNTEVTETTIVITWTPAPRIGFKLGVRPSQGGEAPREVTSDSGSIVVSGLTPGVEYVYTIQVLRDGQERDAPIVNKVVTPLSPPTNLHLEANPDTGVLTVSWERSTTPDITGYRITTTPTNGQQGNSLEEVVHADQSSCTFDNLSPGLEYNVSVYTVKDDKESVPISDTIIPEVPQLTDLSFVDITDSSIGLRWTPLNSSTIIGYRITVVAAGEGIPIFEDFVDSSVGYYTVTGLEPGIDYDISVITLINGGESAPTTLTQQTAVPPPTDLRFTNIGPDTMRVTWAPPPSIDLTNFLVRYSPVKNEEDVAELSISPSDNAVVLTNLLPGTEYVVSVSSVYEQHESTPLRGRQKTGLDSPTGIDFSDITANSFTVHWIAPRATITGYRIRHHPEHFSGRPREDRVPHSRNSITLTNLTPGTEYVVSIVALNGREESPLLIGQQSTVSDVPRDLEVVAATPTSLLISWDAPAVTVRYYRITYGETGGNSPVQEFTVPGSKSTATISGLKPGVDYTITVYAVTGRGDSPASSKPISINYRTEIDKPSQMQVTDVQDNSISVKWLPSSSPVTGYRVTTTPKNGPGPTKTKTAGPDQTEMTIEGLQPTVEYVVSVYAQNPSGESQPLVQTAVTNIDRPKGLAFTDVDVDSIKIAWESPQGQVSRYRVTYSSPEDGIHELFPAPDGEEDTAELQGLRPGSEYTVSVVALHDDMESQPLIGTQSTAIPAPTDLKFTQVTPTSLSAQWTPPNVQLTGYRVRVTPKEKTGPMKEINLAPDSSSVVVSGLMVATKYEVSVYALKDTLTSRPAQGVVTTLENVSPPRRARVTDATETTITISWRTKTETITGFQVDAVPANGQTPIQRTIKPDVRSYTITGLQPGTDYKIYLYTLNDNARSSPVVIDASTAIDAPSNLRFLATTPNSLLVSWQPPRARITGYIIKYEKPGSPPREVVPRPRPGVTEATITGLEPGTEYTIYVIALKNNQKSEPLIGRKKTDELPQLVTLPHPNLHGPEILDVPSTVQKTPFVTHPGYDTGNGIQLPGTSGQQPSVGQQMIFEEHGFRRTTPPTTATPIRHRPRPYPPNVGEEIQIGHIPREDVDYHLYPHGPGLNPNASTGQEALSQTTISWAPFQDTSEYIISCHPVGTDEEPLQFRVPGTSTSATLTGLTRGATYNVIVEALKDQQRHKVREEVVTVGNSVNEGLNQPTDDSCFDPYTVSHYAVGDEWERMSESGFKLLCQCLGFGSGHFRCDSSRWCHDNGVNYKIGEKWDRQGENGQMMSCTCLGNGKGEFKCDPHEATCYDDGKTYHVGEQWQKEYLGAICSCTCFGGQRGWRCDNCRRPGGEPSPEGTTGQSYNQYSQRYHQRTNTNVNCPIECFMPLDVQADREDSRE", "UniProt Q14254": "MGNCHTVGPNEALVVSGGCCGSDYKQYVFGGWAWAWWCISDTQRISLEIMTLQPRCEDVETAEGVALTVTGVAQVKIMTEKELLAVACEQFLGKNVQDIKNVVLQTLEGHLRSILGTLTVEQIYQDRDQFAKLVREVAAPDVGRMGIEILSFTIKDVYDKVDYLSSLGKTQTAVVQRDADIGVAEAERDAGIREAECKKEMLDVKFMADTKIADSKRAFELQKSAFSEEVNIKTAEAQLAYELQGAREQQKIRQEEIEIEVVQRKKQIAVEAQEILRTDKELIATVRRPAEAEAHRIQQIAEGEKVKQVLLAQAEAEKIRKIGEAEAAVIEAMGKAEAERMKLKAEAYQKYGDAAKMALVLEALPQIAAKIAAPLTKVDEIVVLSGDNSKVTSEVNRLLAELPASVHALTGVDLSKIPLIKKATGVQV", "UniProt Q52LJ0": "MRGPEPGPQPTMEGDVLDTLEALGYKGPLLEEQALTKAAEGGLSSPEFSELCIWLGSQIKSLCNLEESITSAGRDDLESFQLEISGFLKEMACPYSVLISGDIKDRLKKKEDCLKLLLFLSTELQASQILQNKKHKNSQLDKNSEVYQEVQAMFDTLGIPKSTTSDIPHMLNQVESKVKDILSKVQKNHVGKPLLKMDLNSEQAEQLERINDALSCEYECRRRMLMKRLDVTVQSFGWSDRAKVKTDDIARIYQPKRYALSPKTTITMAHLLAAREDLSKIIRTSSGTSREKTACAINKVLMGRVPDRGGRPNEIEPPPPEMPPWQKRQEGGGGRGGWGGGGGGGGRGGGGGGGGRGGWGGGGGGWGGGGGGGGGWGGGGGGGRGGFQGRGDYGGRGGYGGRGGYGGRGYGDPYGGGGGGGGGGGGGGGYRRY", "UniProt Q8NFF5": "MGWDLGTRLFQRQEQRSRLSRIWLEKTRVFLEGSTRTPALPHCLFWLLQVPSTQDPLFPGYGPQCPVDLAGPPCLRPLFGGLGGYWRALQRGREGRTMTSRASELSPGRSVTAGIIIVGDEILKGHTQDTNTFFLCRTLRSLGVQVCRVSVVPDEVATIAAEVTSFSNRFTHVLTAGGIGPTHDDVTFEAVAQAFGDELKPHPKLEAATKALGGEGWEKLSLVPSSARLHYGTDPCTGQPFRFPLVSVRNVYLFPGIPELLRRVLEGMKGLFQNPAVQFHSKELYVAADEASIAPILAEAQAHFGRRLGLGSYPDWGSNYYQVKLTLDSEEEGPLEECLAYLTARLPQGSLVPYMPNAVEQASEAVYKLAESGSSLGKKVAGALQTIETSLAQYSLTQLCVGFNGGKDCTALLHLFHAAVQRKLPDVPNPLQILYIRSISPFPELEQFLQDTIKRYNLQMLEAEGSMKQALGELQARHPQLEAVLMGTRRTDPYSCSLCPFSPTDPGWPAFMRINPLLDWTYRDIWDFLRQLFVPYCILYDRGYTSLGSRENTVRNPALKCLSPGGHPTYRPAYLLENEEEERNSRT", "UniProt P26885": "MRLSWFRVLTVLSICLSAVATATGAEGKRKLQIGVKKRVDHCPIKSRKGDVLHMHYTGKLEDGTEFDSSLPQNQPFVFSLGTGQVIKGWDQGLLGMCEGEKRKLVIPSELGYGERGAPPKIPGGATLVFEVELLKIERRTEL", "UniProt Q5JUQ0": "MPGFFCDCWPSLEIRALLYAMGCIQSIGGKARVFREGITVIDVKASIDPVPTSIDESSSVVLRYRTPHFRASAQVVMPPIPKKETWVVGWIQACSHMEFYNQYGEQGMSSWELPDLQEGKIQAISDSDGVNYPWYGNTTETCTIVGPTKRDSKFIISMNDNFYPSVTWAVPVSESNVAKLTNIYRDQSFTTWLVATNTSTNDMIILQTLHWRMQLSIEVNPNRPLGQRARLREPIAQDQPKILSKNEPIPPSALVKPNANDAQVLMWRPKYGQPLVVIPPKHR"},
  "source": "the supplement of paper PMC10849652",
  "note": "The other results are listed elsewhere or left out.",
  "data": [
    {"compound": "CS(=O)(=O)c1ccc(-c2cnc(N)c(C(=O)Nc3ccccc3)n2)cc1", "test": "log2 fold change, soluble protein after heating vs DMSO (PISA); higher = thermal stabilisation; K562 cells, 10 uM, 30 min; active = over 0.2 and 3.5 SD of the protein, either way, in both replicates (recomputed)", "in_short": "(§1)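 Soluble protein was defined as the supernatant after 21,000xg for 90 min. It came from K562 cells at 2×10^6 cells/mL given 10 μM compound for 30 min, heated in aliquots for 3 min across 48°C-58°C, pooled, and extracted in PBS with 0.5% NP-40 at 4°C, and was quantified by TMTpro 16plex LC-MS/MS with equalised channel sums. Thermal stability against control samples, from duplicates, is reported as log2 fold change.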", "values": [
      {"target": "FBXO22 (UniProt Q8NEZ5)", "log2 fold change": "inactive: 0"},
      {"target": "FNBP4 isoform 2 (UniProt Q8N3X1)", "log2 fold change": "inactive: -0.01"},
      {"target": "FGFR1OP (UniProt O95684)", "log2 fold change": "inactive: -0.014"},
      {"target": "FCSK isoform 2 (UniProt Q8N0W3)", "log2 fold change": "inactive: -0.027"},
      {"target": "FAM76B (UniProt Q5HYJ3)", "log2 fold change": "inactive: -0.016"},
      {"target": "FLVCR1 (UniProt Q9Y5Y0)", "log2 fold change": "inactive: -0.039"},
      {"target": "FAM98A (UniProt Q8NCA5)", "log2 fold change": "inactive: -0.009"},
      {"target": "FERMT2 isoform 3 (UniProt Q96AC1)", "log2 fold change": "inactive: -0.005"},
      {"target": "FN3K (UniProt Q9H479)", "log2 fold change": "inactive: -0.042"},
      {"target": "FEM1B (UniProt Q9UK73)", "log2 fold change": "inactive: -0.009"},
      {"target": "FN1 isoform 1 (UniProt P02751)", "log2 fold change": "inactive: -0.029"},
      {"target": "FN3KRP (UniProt Q9HA64)", "log2 fold change": "inactive: -0.005"},
      {"target": "FIP1L1 (UniProt Q6UN15)", "log2 fold change": "inactive: -0.086"},
      {"target": "FLYWCH2 (UniProt Q96CP2)", "log2 fold change": "inactive: -0.019"},
      {"target": "FDX1 (UniProt P10109)", "log2 fold change": "inactive: -0.059"},
      {"target": "FLOT2 (UniProt Q14254)", "log2 fold change": "inactive: 0.085"},
      {"target": "FAM98B (UniProt Q52LJ0)", "log2 fold change": "inactive: -0.039"},
      {"target": "FLOT1 (UniProt O75955)", "log2 fold change": "inactive: 0.191"},
      {"target": "FBXO5 (UniProt Q9UKT4)", "log2 fold change": "inactive: -0.067"},
      {"target": "FLT4 (UniProt P35916)", "log2 fold change": "inactive: 0.05"},
      {"target": "FLAD1 (UniProt Q8NFF5)", "log2 fold change": "inactive: 0.177"},
      {"target": "FLII (UniProt Q13045)", "log2 fold change": "inactive: 0.048"},
      {"target": "FLNB isoform 8 (UniProt O75369)", "log2 fold change": "inactive: 0.031"},
      {"target": "FLNC (UniProt Q14315)", "log2 fold change": "inactive: 0.05"},
      {"target": "FCGR2C (UniProt P31995)", "log2 fold change": "inactive: 0.002"},
      {"target": "FKBP5 (UniProt Q13451)", "log2 fold change": "inactive: 0.031"},
      {"target": "FKBP2 (UniProt P26885)", "log2 fold change": "inactive: 0.032"},
      {"target": "FHL2 (UniProt Q14192)", "log2 fold change": "inactive: 0.011"},
      {"target": "FAM210A (UniProt Q96ND0)", "log2 fold change": "inactive: 0.025"},
      {"target": "FAM86B2 (UniProt P0C5J1)", "log2 fold change": "inactive: 0.045"},
      {"target": "FAM32A (UniProt Q9Y421)", "log2 fold change": "inactive: 0.101"},
      {"target": "FARSB (UniProt Q9NSD9)", "log2 fold change": "inactive: 0.012"},
      {"target": "FAM78A (UniProt Q5JUQ0)", "log2 fold change": "inactive: 0.153"},
      {"target": "FKBP9 (UniProt O95302)", "log2 fold change": "inactive: -0.005"},
      {"target": "FAR1 (UniProt Q8WVX9)", "log2 fold change": "inactive: -0.007"},
      {"target": "FBXO30 (UniProt Q8TB52)", "log2 fold change": "inactive: 0.032"},
      {"target": "FKBP15 (UniProt Q5T1M5)", "log2 fold change": "inactive: -0.018"},
      {"target": "FBLN1 (UniProt P23142)", "log2 fold change": "inactive: -0.035"}
    ]},
    {"compound": "C[C@@H](Oc1cc(-c2cnn(C3CCNCC3)c2)cnc1N)c1c(Cl)ccc(F)c1Cl [crizotinib]", "test": "log2 fold change, soluble protein after heating vs DMSO (PISA); higher = thermal stabilisation; K562 cells, 10 uM, 30 min; active = over 0.2 and 3.5 SD of the protein, either way, in both replicates (recomputed)", "in_short": "as §1", "values": [
      {"target": "FBXO22 (UniProt Q8NEZ5)", "log2 fold change": "inactive: 0.089"},
      {"target": "FNBP4 isoform 2 (UniProt Q8N3X1)", "log2 fold change": "inactive: 0.073"},
      {"target": "FGFR1OP (UniProt O95684)", "log2 fold change": "inactive: -0.034"},
      {"target": "FCSK isoform 2 (UniProt Q8N0W3)", "log2 fold change": "inactive: -0.002"},
      {"target": "FAM76B (UniProt Q5HYJ3)", "log2 fold change": "inactive: -0.076"},
      {"target": "FLVCR1 (UniProt Q9Y5Y0)", "log2 fold change": "inactive: 0.066"},
      {"target": "FAM98A (UniProt Q8NCA5)", "log2 fold change": "inactive: -0.12"},
      {"target": "FERMT2 isoform 3 (UniProt Q96AC1)", "log2 fold change": "inactive: -0.177"},
      {"target": "FN3K (UniProt Q9H479)", "log2 fold change": "inactive: 0.033"},
      {"target": "FEM1B (UniProt Q9UK73)", "log2 fold change": "inactive: 0.052"},
      {"target": "FN1 isoform 1 (UniProt P02751)", "log2 fold change": "inactive: 0.069"},
      {"target": "FN3KRP (UniProt Q9HA64)", "log2 fold change": "inactive: 0.033"},
      {"target": "FIP1L1 (UniProt Q6UN15)", "log2 fold change": "inactive: -0.035"},
      {"target": "FLYWCH2 (UniProt Q96CP2)", "log2 fold change": "inactive: -0.002"},
      {"target": "FDX1 (UniProt P10109)", "log2 fold change": "inactive: 0.108"},
      {"target": "FLOT2 (UniProt Q14254)", "log2 fold change": "inactive: 0.207"},
      {"target": "FAM98B (UniProt Q52LJ0)", "log2 fold change": "inactive: -0.051"},
      {"target": "FLOT1 (UniProt O75955)", "log2 fold change": "inactive: 0.042"},
      {"target": "FBXO5 (UniProt Q9UKT4)", "log2 fold change": "inactive: 0.027"},
      {"target": "FLT4 (UniProt P35916)", "log2 fold change": "inactive: 0.062"},
      {"target": "FLAD1 (UniProt Q8NFF5)", "log2 fold change": "inactive: 0.091"},
      {"target": "FLII (UniProt Q13045)", "log2 fold change": "inactive: -0.011"},
      {"target": "FLNB isoform 8 (UniProt O75369)", "log2 fold change": "inactive: -0.025"},
      {"target": "FLNC (UniProt Q14315)", "log2 fold change": "inactive: 0.008"},
      {"target": "FCGR2C (UniProt P31995)", "log2 fold change": "inactive: 0.136"},
      {"target": "FKBP5 (UniProt Q13451)", "log2 fold change": "inactive: -0.106"},
      {"target": "FKBP2 (UniProt P26885)", "log2 fold change": "inactive: 0.113"},
      {"target": "FHL2 (UniProt Q14192)", "log2 fold change": "inactive: 0.046"},
      {"target": "FAM210A (UniProt Q96ND0)", "log2 fold change": "inactive: 0.056"},
      {"target": "FAM32A (UniProt Q9Y421)", "log2 fold change": "inactive: 0.024"},
      {"target": "FARSB (UniProt Q9NSD9)", "log2 fold change": "inactive: 0.016"},
      {"target": "FAM78A (UniProt Q5JUQ0)", "log2 fold change": "inactive: -0.138"},
      {"target": "FKBP9 (UniProt O95302)", "log2 fold change": "inactive: 0.058"},
      {"target": "FAR1 (UniProt Q8WVX9)", "log2 fold change": "inactive: 0.077"},
      {"target": "FBXO30 (UniProt Q8TB52)", "log2 fold change": "inactive: -0.088"},
      {"target": "FKBP15 (UniProt Q5T1M5)", "log2 fold change": "inactive: -0.118"},
      {"target": "FBLN1 (UniProt P23142)", "log2 fold change": "inactive: 0.07"}
    ]}
  ]
}
